No constants are given. Whether binding was seen depends on the method and setting. In cells and extracts the contact can be indirect. Some results given as binding are weak or reduced against the parent protein; the word gives no strength.
Tests used:
[1] = molecular target: cytoplasmic tail peptide of wildtype integrin β1, N-terminally biotinylated (UniProt P05556); assay: pull-down; N-terminally biotinylated synthetic integrin tail peptides as bait, CHO-B2 cell lysate as prey, Pierce Biotinylated Protein Interaction Pull-Down Kit; detection by western blot; only the target purified
[2] = molecular target: cytoplasmic tail peptide of wildtype integrin β6, N-terminally biotinylated (UniProt P18564); assay: as above

Chains of the proteins cited; added tags and fusions are not shown. Residues count along the entry.
UniProt P05556, residues 752-798: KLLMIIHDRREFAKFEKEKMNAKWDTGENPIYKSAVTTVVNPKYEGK
UniProt P18564, residues 731-788: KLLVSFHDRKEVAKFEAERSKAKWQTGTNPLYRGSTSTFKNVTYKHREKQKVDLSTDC
UniProt A0A8C2NBB4: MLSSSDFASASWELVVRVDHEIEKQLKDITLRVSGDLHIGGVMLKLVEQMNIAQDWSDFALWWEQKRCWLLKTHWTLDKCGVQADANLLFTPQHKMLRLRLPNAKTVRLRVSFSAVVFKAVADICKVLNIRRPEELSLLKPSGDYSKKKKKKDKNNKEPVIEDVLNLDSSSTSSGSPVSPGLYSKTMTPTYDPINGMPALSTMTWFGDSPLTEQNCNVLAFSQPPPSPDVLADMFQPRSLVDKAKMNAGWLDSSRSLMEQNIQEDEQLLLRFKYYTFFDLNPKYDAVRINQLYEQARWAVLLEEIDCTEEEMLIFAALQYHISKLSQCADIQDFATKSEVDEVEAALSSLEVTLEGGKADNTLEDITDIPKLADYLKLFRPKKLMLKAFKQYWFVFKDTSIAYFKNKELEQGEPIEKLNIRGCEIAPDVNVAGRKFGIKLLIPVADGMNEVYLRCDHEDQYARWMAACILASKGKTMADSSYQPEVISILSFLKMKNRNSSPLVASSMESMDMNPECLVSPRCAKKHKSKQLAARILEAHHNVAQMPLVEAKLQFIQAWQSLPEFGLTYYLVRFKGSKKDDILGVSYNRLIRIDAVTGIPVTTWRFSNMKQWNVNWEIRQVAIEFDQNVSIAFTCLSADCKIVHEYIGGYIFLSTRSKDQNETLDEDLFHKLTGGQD
UniProt A0A8C2MVT2: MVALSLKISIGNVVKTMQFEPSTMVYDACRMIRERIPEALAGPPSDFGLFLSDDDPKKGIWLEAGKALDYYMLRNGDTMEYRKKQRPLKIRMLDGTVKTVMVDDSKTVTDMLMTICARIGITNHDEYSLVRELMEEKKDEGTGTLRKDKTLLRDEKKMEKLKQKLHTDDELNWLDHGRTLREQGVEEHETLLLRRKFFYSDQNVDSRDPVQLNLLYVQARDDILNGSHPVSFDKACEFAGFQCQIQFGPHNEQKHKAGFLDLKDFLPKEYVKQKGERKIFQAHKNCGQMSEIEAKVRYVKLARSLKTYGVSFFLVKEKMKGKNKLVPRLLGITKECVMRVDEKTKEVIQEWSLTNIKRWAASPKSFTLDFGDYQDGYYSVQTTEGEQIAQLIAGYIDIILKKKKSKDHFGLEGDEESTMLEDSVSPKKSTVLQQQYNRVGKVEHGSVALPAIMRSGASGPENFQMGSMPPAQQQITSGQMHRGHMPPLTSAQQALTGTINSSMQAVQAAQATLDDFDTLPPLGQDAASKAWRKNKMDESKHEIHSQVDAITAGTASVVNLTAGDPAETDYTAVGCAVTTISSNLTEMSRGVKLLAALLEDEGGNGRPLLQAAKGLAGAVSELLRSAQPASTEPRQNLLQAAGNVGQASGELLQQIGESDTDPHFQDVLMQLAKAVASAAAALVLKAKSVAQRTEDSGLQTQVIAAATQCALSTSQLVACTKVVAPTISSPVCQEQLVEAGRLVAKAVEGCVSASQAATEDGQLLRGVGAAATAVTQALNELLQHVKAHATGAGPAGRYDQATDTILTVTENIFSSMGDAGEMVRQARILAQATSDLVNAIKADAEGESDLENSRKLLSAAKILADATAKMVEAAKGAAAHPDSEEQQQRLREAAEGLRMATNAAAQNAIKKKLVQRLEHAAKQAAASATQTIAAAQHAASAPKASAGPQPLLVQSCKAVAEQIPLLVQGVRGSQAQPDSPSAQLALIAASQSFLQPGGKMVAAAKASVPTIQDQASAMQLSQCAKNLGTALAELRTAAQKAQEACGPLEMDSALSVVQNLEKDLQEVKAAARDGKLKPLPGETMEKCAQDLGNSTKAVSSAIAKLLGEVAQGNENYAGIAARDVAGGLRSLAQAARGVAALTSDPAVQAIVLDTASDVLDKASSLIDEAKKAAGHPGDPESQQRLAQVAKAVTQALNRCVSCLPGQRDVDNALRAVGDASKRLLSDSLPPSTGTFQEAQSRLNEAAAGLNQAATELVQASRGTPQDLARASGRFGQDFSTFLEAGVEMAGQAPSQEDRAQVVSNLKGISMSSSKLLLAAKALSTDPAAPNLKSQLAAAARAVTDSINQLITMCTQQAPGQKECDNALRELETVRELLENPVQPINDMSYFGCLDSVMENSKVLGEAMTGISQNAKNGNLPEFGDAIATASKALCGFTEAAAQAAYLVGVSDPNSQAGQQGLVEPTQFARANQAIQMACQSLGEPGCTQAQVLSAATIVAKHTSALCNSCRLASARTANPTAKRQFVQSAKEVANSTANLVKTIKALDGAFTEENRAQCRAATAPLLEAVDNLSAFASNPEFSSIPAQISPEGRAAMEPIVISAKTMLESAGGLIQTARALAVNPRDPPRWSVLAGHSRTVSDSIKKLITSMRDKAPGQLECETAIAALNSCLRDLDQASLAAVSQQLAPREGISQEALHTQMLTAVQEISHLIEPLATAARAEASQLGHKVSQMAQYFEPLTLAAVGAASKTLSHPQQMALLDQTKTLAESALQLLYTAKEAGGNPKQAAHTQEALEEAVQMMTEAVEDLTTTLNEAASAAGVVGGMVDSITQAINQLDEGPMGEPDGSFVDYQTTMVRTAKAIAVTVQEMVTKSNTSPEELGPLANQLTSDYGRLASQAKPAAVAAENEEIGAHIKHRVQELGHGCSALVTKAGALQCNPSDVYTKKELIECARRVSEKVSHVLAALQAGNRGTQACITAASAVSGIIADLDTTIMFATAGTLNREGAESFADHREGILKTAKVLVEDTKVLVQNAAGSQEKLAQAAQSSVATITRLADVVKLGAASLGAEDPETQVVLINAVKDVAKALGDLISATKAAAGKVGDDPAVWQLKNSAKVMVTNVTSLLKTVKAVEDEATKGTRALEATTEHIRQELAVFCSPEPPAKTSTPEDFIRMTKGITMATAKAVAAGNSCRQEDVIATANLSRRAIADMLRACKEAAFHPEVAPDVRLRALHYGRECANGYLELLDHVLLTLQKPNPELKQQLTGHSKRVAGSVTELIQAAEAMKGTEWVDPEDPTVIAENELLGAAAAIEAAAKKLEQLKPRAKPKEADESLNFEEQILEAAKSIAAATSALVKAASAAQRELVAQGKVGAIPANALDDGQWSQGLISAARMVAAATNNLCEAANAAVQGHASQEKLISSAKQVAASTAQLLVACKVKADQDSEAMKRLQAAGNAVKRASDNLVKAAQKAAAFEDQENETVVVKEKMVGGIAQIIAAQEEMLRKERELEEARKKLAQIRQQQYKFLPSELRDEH

binding [1] | binding [2] | Substance
binds | binds | kindlin1 (from UniProt A0A8C2NBB4 1-677)
binds | binds | talin1 (from UniProt A0A8C2MVT2 1-2541)
